Experimental data reported in the supplement of paper PMC10849652.
This is one part of the list.

Sequences of proteins named here, by UniProt entry; tags and fusion partners are left off. A change or cut given only in a name is not applied to a line headed by its entry.
UniProt Q9Y3D2: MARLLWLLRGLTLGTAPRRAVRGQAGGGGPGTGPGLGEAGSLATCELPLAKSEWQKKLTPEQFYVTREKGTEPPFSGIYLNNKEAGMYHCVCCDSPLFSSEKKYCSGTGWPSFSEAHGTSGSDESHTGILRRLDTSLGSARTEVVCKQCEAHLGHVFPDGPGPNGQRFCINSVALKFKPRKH
UniProt P13995: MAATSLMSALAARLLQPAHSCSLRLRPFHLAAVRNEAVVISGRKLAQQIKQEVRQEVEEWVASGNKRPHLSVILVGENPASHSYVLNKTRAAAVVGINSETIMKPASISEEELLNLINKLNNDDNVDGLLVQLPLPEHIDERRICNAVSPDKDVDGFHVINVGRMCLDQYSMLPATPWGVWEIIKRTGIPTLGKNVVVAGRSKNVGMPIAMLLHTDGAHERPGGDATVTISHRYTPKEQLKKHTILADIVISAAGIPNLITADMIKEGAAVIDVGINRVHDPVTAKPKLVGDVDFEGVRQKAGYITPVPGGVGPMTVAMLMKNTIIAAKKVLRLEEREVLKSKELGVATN
UniProt P00156: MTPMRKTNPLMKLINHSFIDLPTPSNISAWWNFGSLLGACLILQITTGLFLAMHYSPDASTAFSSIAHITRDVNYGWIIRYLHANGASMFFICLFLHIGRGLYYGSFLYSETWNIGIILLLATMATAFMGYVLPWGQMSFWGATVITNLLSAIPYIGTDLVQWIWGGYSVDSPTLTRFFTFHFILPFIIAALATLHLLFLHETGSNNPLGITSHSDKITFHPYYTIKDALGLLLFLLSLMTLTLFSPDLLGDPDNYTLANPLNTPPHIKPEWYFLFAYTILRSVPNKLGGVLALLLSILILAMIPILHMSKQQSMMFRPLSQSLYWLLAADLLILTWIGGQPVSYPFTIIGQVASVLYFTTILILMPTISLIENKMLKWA
UniProt O75431: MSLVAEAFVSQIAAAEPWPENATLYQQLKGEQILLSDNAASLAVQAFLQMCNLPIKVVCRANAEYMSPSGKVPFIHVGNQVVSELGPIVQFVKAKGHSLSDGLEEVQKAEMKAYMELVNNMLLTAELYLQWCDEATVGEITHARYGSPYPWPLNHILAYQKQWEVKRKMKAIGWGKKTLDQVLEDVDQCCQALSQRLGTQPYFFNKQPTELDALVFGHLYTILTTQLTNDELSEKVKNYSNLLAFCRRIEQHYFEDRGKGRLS
UniProt P13640: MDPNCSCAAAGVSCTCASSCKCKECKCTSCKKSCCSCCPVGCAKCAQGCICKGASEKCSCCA
UniProt O75592: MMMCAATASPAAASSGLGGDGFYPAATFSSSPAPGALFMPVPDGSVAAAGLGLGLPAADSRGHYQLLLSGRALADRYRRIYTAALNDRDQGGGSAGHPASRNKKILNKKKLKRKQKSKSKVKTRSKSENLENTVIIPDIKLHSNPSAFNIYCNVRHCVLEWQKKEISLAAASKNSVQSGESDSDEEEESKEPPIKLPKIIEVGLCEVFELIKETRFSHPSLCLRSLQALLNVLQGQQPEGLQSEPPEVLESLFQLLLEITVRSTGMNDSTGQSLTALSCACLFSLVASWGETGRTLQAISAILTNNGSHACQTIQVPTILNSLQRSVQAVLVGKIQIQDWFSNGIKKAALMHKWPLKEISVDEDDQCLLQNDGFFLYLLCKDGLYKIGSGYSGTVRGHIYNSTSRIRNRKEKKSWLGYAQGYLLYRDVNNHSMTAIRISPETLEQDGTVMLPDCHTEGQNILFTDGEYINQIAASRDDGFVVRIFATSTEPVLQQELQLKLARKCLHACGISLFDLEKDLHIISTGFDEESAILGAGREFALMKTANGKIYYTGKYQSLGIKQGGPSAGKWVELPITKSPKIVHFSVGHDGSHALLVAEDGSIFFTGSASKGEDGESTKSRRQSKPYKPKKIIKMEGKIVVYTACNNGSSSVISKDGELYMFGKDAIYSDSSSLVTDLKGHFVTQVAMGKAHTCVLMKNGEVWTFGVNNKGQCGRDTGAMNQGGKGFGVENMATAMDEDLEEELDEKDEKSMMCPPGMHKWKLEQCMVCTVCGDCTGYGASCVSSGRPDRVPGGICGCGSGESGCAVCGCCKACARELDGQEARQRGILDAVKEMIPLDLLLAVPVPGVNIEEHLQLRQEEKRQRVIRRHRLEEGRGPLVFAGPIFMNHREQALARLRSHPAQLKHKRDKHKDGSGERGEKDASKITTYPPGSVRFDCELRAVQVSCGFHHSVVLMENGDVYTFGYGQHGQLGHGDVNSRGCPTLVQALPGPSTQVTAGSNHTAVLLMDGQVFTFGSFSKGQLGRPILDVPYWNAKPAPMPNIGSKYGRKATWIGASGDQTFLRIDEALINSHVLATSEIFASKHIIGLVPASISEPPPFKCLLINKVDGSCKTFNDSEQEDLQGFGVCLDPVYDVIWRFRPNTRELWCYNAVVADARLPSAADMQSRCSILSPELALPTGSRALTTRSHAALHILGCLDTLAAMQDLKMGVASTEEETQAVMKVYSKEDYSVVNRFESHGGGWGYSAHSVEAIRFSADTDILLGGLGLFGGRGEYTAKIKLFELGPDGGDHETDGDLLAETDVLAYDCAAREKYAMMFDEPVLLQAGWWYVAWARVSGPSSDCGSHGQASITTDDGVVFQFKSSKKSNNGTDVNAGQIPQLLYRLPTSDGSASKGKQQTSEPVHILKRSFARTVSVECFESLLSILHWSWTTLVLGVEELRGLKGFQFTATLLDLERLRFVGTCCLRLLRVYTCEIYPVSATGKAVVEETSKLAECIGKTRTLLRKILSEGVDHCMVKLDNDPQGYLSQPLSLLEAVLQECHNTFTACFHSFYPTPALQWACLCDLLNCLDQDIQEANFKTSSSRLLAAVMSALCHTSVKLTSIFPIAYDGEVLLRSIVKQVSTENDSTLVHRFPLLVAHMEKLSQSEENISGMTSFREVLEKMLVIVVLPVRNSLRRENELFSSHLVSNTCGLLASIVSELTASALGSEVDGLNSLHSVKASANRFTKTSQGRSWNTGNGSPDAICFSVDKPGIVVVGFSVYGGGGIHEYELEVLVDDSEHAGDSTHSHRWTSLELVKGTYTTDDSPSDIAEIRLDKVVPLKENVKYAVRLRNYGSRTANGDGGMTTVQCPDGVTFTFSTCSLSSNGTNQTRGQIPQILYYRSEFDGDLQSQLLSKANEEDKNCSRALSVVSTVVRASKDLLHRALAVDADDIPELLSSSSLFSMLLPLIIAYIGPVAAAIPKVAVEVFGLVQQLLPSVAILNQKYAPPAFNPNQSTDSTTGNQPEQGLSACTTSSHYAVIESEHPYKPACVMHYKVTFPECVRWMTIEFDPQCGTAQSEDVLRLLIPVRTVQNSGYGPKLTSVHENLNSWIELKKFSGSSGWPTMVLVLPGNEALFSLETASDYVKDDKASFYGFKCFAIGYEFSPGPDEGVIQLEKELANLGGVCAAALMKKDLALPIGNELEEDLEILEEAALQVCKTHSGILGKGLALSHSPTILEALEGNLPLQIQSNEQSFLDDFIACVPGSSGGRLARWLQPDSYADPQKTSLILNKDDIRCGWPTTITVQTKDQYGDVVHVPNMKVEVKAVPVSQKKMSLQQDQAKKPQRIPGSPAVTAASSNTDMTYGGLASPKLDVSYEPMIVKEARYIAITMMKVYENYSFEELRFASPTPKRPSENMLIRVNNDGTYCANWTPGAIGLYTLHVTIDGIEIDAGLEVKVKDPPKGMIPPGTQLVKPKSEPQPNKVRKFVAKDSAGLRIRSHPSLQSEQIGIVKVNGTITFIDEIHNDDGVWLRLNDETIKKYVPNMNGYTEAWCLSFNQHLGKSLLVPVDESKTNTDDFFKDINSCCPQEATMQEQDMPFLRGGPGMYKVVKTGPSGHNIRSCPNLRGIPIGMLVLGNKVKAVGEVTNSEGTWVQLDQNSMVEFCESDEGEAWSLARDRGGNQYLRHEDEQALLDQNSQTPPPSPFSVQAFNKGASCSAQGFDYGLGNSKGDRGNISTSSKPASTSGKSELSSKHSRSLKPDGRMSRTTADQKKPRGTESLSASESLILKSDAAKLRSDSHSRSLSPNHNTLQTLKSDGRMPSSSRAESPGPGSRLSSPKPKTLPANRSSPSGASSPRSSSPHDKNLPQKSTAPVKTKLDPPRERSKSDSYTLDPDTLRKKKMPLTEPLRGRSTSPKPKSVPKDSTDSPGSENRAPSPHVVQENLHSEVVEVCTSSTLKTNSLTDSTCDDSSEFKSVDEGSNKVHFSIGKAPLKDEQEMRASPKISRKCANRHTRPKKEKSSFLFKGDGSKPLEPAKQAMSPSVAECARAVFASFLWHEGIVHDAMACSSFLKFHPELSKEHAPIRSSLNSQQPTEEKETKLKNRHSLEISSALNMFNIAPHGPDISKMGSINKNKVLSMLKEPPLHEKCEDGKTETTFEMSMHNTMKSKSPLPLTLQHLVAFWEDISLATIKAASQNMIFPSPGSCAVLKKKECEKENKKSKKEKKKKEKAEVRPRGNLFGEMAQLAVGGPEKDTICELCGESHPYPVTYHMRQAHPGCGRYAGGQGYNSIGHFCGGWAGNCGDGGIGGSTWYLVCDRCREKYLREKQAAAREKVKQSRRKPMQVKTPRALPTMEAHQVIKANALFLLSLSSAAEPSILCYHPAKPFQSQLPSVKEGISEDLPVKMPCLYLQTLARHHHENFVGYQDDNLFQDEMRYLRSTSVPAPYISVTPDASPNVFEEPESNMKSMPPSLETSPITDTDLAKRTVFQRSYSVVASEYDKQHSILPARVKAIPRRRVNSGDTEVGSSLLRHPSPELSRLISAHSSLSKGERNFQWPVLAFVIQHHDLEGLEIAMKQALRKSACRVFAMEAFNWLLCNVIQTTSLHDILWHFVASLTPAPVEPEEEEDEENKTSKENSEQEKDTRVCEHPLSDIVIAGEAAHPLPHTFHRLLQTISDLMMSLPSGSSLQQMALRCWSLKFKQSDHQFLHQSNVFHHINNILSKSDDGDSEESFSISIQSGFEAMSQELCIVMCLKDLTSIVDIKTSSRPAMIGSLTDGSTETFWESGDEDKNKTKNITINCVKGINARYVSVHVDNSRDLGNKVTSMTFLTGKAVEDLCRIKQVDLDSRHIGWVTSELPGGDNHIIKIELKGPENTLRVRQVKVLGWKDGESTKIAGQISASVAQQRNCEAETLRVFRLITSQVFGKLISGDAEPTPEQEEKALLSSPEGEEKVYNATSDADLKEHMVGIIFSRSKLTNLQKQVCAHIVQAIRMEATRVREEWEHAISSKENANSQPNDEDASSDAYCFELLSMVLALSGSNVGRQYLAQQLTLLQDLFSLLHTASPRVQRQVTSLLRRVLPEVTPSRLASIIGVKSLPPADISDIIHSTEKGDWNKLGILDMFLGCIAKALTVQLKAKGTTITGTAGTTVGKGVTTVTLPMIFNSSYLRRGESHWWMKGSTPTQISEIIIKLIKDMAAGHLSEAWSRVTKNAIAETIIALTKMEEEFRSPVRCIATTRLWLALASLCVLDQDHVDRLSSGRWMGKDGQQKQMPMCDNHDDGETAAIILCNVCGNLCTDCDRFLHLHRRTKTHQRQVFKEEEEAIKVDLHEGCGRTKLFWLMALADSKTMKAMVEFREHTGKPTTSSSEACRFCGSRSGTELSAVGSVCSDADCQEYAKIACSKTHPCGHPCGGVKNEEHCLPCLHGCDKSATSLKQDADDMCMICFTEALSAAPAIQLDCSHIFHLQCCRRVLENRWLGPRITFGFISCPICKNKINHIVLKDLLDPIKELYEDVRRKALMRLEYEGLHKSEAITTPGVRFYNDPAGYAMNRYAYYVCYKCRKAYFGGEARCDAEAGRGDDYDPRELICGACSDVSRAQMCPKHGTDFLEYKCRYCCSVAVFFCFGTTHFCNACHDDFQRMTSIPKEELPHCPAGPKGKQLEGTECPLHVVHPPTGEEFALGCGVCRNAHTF
UniProt P03915, whole entry, looked up: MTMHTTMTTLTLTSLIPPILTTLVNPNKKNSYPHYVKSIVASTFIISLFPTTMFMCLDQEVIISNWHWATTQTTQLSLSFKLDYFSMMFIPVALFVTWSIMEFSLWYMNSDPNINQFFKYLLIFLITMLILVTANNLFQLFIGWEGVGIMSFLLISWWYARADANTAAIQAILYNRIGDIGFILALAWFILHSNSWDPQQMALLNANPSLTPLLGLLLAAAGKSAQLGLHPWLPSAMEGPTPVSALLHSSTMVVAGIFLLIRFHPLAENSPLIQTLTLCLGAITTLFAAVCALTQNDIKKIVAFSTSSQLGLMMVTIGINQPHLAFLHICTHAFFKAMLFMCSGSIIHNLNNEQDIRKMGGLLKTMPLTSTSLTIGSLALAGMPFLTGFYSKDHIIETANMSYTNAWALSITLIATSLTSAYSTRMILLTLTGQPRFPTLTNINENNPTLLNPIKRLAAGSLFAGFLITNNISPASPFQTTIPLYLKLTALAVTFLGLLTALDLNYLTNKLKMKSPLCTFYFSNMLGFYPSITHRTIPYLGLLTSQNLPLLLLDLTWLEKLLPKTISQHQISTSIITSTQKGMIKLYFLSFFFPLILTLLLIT

These targets were tested with c1cn2cc(-c3ccc4cn[nH]c4c3)nc(Nc3ccc(N4CCOCC4)cc3)c2n1 [entospletinib] (assay: log2 fold change, soluble protein after heating vs DMSO (PISA); higher = thermal stabilisation; K562 cells, 10 uM, 30 min; active = over 0.2 and 3.5 SD of the protein, either way, in both replicates (recomputed)).
Outline: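 Thermal stability values are relative to control samples and come from duplicates. They are expressed as log2 fold changes. For measurement, K562 cells (2×10^6 cells/mL) received 10 μM compound for 30 min, and aliquots were heated for 3 min over 48°C-58°C, pooled, and extracted at 4°C in PBS with 0.5% NP-40. Soluble protein, the supernatant after 21,000xg for 90 min, was quantified by TMTpro 16plex LC-MS/MS with equalised channel sums.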

log2 fold change, inactive:
MRRF (UniProt Q96E11) -0.097, MTHFD1L (UniProt B7ZM99) 0.009, MSRB2 (UniProt Q9Y3D2) -0.022, MTA3 (UniProt Q9BTC8) 0.021, MYH4 (UniProt Q9Y623) 0.895, MTHFD2 (UniProt P13995) -0.002, MT-CYB (UniProt P00156) 0.034, MTMR2 (UniProt Q13614) 0, MRPS14 (UniProt O60783) 0.176, MRPS18A isoform 2 (UniProt Q9NVS2) 0.094, MTX2 (UniProt O75431) 0.069, MYCBP (UniProt Q99417) -0.021, MRPL9 (UniProt Q9BYD2) 0.115, MYADM (UniProt Q96S97) -0.194, MTPN (UniProt P58546) 0.062, MRPS18C (UniProt Q9Y3D5) 0.065, MSMO1 (UniProt Q15800) 0.082, MT1G (UniProt P13640) 0.042, MRPS23 (UniProt Q9Y3D9) 0.091, MTFR1 (UniProt Q15390) -0.046, MYCBP2 (UniProt O75592) 0.116, MTPAP (UniProt Q9NVV4) 0.046, MSI2 (UniProt Q96DH6) 0.002, MT-ND5 (UniProt P03915) -0.002
